Experimental data from US6911474B2, “Methods, compounds, and compositions for reducing body fat and modulating fatty acid metabolism” (The Regents of the University of California, priority 2001, dated 2005).

Test: Plasma hormone levels by radioimmunoassay (HPA axis)
Assay type: in vivo, rat
Conditions: 20 mg per kg, i.p., 60 min after injection
Experimental: Blood chemistry. Plasma β-hydroxybutyrate and glycerol were measured using commercial kits (Sigrna, St. Louis, Mo.). Plasma prolactin, corticosterone and luteinizing hormone were quantified by radioimmunoassay (Navarro et al., Neuroreport, 8:491-496 (1997)).

## CCCCCCCC/C=C\CCCCCCCC(=O)NCCO [OEA, Oleoylethanolamide]
  plasma corticosterone (B): 280 ± 61 ng per ml
  plasma luteinizing hormone (LH): 6.2 ± 1.5 ng per ml
  plasma prolactin (PRL): 8.2 ± 3.2 ng per ml
